This passage reports binding results from paper PMC12979858.

Sequences of proteins named here, by UniProt entry; tags and fusion partners are left off.
UniProt Q8CGF6: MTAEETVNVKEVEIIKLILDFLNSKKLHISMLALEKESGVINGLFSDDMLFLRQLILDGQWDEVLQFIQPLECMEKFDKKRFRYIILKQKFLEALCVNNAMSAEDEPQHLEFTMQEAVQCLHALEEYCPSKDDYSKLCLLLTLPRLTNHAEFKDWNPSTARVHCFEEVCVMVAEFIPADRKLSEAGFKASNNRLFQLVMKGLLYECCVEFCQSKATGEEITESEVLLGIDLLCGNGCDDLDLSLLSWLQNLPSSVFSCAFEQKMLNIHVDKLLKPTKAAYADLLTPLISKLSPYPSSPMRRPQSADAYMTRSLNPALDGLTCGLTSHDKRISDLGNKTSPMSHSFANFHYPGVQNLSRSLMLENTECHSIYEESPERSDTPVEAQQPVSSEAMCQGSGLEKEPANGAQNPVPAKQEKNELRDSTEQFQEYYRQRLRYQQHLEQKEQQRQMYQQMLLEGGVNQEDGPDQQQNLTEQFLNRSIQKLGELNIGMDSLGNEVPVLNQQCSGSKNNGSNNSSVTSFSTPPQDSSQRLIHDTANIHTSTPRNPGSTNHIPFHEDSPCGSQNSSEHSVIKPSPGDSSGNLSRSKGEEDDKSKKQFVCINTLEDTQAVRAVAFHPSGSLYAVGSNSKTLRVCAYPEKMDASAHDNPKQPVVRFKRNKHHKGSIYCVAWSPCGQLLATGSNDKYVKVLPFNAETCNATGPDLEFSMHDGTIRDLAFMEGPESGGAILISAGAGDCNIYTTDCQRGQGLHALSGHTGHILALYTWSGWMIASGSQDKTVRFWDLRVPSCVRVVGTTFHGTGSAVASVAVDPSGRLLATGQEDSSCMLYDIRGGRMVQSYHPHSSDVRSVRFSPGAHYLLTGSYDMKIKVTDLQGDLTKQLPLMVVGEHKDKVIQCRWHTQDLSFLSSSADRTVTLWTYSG

The chains are these.
B1: NPHP1 (protein, UniProt Q9QY53 1-687)
chain: MLARRPRDPLQALRRRGQELKLQVDSLVTESQLTGALEPSKRREIYQRCIQLKQAVDENKNTLQKLNKADEAAPVGNYEQRKEEEHSLLEKLACQLQELAVSISRKDALKVEAHSDKEEDDTTEDDEEETGGEEEESEGDGEGKQEQASPKQAETETVTYIALGDFAAQQTGDLTFKKGDVLHIIEKKPDGWWLAKDAEGVEGLIPRTYLEPYNKEDKLESSEGSEEGGEEDGEEDVEVVDETADGAQVKQRTDSHWSAVRKAISEQINTVDVLATMGAIPAGFRPSTLSQLLDEAGNQFRASYFLQPELTTSQLAFRDLTWDAKAGTIMSRPSRVSLILTLWSCKMIPLPGTSIQVLSRHIRLCLFDGSKVLSNIHTVRAVWQPKKPKTWTFSPQVTGILPCLLDGDCFIRSNSSTPDLGILFELGISYIRNSTGERGELSCGWVFLKLFDASGVPIPAKTYELFLNGGTPYEKGVEVDPSVSRRAQGSVFRQMISVRRQPQLLVKLRSLNRRSRAMLSLLPETLVGSMCSAHLLIFYRQILGDVLLRDRTNLQSADLISHPVLATFPLLLEQPDVMDALRSSWSEKESTLKRAEKRDKELLKAEFLLVYHDCVLPLLHSTLLPPFRWAEEETEAARWKAIADFLKQSRENEGSLKALLSPDGVHKPFDLSEQTFDFLGEIRKNSG
B2: NPHP4 (protein, UniProt P59240 1-1425)
chain: MGDWHRAFTQNTLVPPHPQRARQLGKESTAFQCILKWLDGPLIKQGILDMLSELECHLRVTLFDVTYKHFFGRTWKTTVKPTNQPSKQPPRITFNEPLYFHTTLSHPSIVAVVEVVTEGRKRDGTLQLLSCGFGILRIFGNKPESPTSAAQDKRLRLYHGTPRALLHPLLQDPIEQNKFMRLMENCSLQYTLKPHPPLEPAFHLLPENLLVSGFQQIPGLLPPHGDTGDALRKPRFQKPTTWHLDDLFFTLYPSLEKFEEELVQLLISDREGVGLLDSGTLEVLERRLHVCVHNGLGFVQRPQVVVLVPEMDVALTRSASFSRKISASSKNSSGNQALVLRSHLRLPEMVSHPAFAIVFQLEYVFNSPSGADGGASSPTSISSVACMHMVRWAVWNPDLEVGPGKVTLPLQGGVQQNPSRCLVYKVPSASMSSEEVKQVESGTIQFQFSLSSDGPTEHANGPRVGRRSSRKMPASPSGTPAPAARDLAATQDSPVGPGLSLSQLTASPLSPALQSSSKPPLQPPDSSQSPEGPQLQAESVLESRVSHLEADLSQPASLQGTPAVEHLQELPFTPLHAPIVVGAQTRSSRSQLSRAAMVLLQSSGFPEILDASQQPVEAVNPIDPVRFNPQKEESDCLRGNEIVLQFLAFSRAAQDCPGTPWPQTVYFTFQFYRFPPETTPRLQLVKLDGTGKSGSGSLSHILVPINKDGSFDAGSPGLQLRYMVDPGFLKPGEQRWFAHYLAAQTLQVDVWDGDSLLLIGSAGVQMKHLLRQGRPAVQVSHELEVVATEYEQEMMAVSGDVAGFGSVKPIGVHTVVKGRLHLTLANVGHACEPRARGSNLLPPSRSRVISNDGASFFSGGSLLIPGGPKRKRVVQAQRLADVDSELAAMLLTHTRAGQGPQAAGQEADAVHKRKLERMRLVRLQEAGGDSDSRRISLLAQHSVRAQHSRDLQVIDAYRERTKAESIAGVLSQAITTHHTLYATLGTAEFFEFALKNPHNTQHTVAIEIDSPELSIILDSQEWRYFKEATGLHTPLEEDMFHLRGSLAPQLYLRPRETAHIPLKFQSFSVGPLAPTQAPAEVITEKDAESGPLWKCSAMPTKHAKVLFRVETGQLIAVLCLTVEPQPHVVDQVFRFYHPELTFLKKAIRLPPWHTLPGAPVGMPGEDPPVHVRCSDPNVICEAQNVGPGEPRDVFLKVASGPSPEIKDFFVVIYADRWLAVPVQTWQVCLHSLQRVDVSCVAGQLTRLSLVLRGTQTVRKVRAFTSHPQELKTDPAGVFVLPPHGVQDLHVGVRPRRAGSRFVHLNLVDIDYHQLVASWLVCLSCRQPLISKAFEITMAAGDEKGTNKRITYTNPYPSRRTYRLHSDRPELLRFKEDSFQVAGGETYTIGLRFLPSGSAGQEEILIYINDHEDKNEETFCVKVLYQ
B3: RGS22 (protein, UniProt G3UYX5 1-1258)
chain: MPEKRLSAEPPEVTEEEFENYLATDNFLVDYFNEFLSLPTFPEAIRFNVDYGVFEVVNDAPQLLEKQLKKILQNQQPRNPIYDVVRKGKSDSKSTQKSVPCEDEAINVNYSIMCLKREQGINWIKRERLPAFLESDCYFEYRLAKLISQATWSSTGMNFIVGTNFTPWILRRPPAPPPPSTDEDNYMIMKKFYVSLGQASYTQTKDWFTLAKESENTVTMASLPCCIPHHQTASPVIATASEIFDDGVHPRTIKSLSKSSKAVSELDEEEEGSISMKDSPSQALLRVYLEKKGGKERNLTLHFSSVEEFLDAYIIFILREAIQHITGQSLSDTPEYINYYKVSHVIFDKVPPVPSNKAIVSPPVEMVEEISKDRLENVSLSSESESIGPESRADWCISHRTYDIGNRREFERFKKFLKGTLGERYWWLWMDIERLKVLKDPERHQRHLEKMKKCYLVSSGERYLSAEILSKFKLLHGSRWTADHLKNIQAEVLKPLLLYWAPRFCVTHSASAKNASTELKFWRLRQEKPRKDVDPFPQMATLLPLRPKSCIPQTPEVQGEEINLFQPSKFKKLSKINAGTQQLGRSEPLNAVSSKDGGLEKGSKRLPESTTVVRLTSFTDISECLKPQLERKYTYTEEHNVKTVSNVGALGGFDMENLLQSLYVENRAGFFFTKFCENSGNKLWKHSVYFWFDLQAYHQLFYQETLQPFKVCKQAQYLFATYIAPSASFDIGLHQEGKKDIYMKIQPPFEDLFDTAEEFILLSLLEPWTQMVMSDKMAYKKVELQEETRQLDSACFRKLHALHKETISKKAEDTTGYAMAKLSLSDVSKQTEYWLNVPEGYKHFTFTDLLNNKLEFEHFRQFLESHSSSLDLMCWIDIEQFRRIIFKDQKQREEKSIYIKNKYLNKKYFFGPRSPASLHQQNQIMLLSGGWGRILHEQLDASVLVEIQKHVLNRLENVWLPLFLSSEQFASRQKIKTQMKDIADELLLQRHDRKIGVWKPVESKWISSSCEIIAFRKALLNPVIARQFQRFVALKGDLLENGVLFWQEVQKFKDLCHSHCDESIIHKKITTIINCFINSYIPPALQIDIPVEQAQKILEHRKELGPYVFREAQMTIFGVLFKFWPQFCEFRKNLTDEKIMSVLERRQEHKQKRKASDTEEDKAGKSGVKQYASTTGSLTKPVLGSESLLVLQSYGRQPTWCYSKYIEALEQERILLKIQEEVERKMFTGTSSFTNLLKPSTGSALSLKKNVSLHSIQR
B4: TXIP1 (protein, UniProt Q99P25 1-704)
chain: MANLQERKSFSKPRISIQASGGTPEAKGIEKRKLSQKRRTLPLQLSLGGHLSPWPTYTSGQTVLHNRKPCSDDSRNRANSCQQQSMSISKPKYLEQLENYLRKELLLLDLSTDSAQELRLQPYREIFEFFIEDFKTYKPLLSSIKNAYEVMLAHQKERIRSLEPLKAKIVTMNEDCSERVLAMRAEERYEISVLKKEKMNLLKLIDKKNEEKISLQSEVAKLRRSLAEEYLRYLTERDARKILIGDLNELRYQQEDMSLAQTPGVWGEDPVKLTLALKMTRQDLTRTQMELNTMKANSGDVVPRRDLEMQEKTNMELQEQLESLKADYEEVQKEHELLLQLHMSTLKERDQFYNELQEIQRTSTPRPDWTKCESIIAGGPERWLVLAEGKNSDQLVDVLLEEIGMGLLREKDFFPGLGFGDAIPPFLRFDGPVKNKKPSKKEVVNLLKDAWKERIAEEQKEPFPDFFFNFLERRFGVNDAMAWAYTIFENIKLFRSSEIMNQFYAVLMGKNLESVYINQKKTLSHLLKELLSVDTQNEGSITMEQFSTILKTTFPLKKEEQIQELMEAVGWGPDSSNTDMLNYRSLFNEDEEGQSEPFVQRLWEQYESDKEAYLEELKQELDLDPLEDVTLLKMRGTLMNIDPTMDKQTLSAYLSQAYQIPAIDVPLEDEEKQGIISIKVETALDRLRMADTKRVGPREPDPAS

No constants are given. Whether binding was seen depends on the method and setting. Binding seen in cells or lysates may run through a third protein. These calls come from enrichment with a bait or labelling near it, and not all partners need be listed.

This assay deals with APEX2-WDR47 (mouse) (UniProt Q8CGF6). Nature of the assay: proximity labelling; APEX2-WDR47 expressed in mEPCs by adenovirus; 500 uM biotin-phenol at 37 C for 30 min, 1 mM H2O2 for 1 min; lysis in RIPA buffer, biotinylated proteins on streptavidin-conjugated agarose beads, shotgun mass spectrometry; cutoff >= twofold peptide ratio against the mock-treated control.
Consider B1, for which the binding result is recorded as “binds”.

On to B2, for which the binding entry is “binds”. As for B3, the entry is “binds”. Regarding B4, the binding entry is “binds”.
